Test results from patent US20150284812A1 (priority 2012, published 2015).

Tests used:
[1] = test system: gene expression control region of the human CYP3A4 gene (EGFP reporter)
Protocol: Forty-eight hours later (corresponding to Day 14 of differentiation culture), the total area fluorescence intensities of EGFP and DsRed were analyzed under a fluorescence microscope (FIG. 16).

COC(=O)C1=C(C)NC(C)=C(C(=O)OC)C1c1ccccc1[N+](=O)[O-] [nifedipine]
cellular damage to HepaRG cells (HepaRG cells): high cellular damage
expression of EGFP (total area fluorescence intensity) [1]: induced
